In the supplement of paper PMC8256030:
“And” between values parts separate entries of the source, which are not always exact repeats. Identical values can stand only once. This is one part of the list. This data set is noisy: repeats of one test often differ as much as different tests do.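 HEK293T cells were given each compound shortly before transfection with a reporter in which red mCherry is followed by the SARS-CoV-2 frameshift element and then GFP in the −1 frame, so GFP appears only after frameshifting.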

How the values were obtained:
[1] = system: SARS-CoV-2 -1 PRF reporter mCherry-FSE-GFP(-1); assay: mCherry (red) intensity as percent of control; higher = higher upstream reporter expression; conditions: 10 µM; 24 h; HEK293T
[2] = system: SARS-CoV-2 -1 PRF reporter mCherry-FSE-GFP(-1); assay: percent effect, decrease of GFP/mCherry ratio (-1 PRF reporter) relative to controls; higher = stronger frameshift inhibition; conditions: 10 µM; 24 h; HEK293T

Row | Compound | mCherry [1] | percent effect [2]
1 | CC(C)NC[C@H](O)COc1ccc(O)cc1 [prenalterol] | 83.8% | -0.133%
2 | CC[C@@]1(O)C(=O)OCc2c1cc1n(c2=O)Cc2cc3c(CN(C)C)c(O)ccc3nc2-1 [topotecan] | 167% | 7.13%
3 | CC(N/C(=N\C#N)Nc1ccncc1)C(C)(C)C (stereo not drawn) [pinacidil] | 83.1% | -1.64%
4 | CCCCc1nc(Cl)c(CO)n1Cc1ccc(-c2ccccc2-c2nnn[nH]2)cc1 | 87.2% | -4.05%
5 | CC(C)NC[C@H](O)COc1ccc(CCOCC2CC2)cc1 [levobetaxolol] | 76.8% | 0.193%
6 | N[C@@H](Cc1c[nH]cn1)C(=O)O [L-Histidine] | 89.2% | -1.54%
7 | CC(=O)O[C@H]1C(=O)[C@@]2(C)[C@H]([C@H](OC(=O)c3ccccc3)[C@]3(O)C[C@H](OC(=O)[C@H](O)[C@@H](NC(=O)c4ccccc4)c4ccccc4)C(C)=C1C3(C)C)[C@]1(OC(C)=O)CO[C@@H]1C[C@@H]2O | 28.6% | -1.82%
8 | CCOc1ccc2nc(S(N)(=O)=O)sc2c1 | 84.8% | -1.09%
9 | O=C([O-])CN1CCN(CC(=O)[O-])CCN([C@H](CO)[C@H](O)CO)CCN(CC(=O)[O-])CC1.[Gd+3] (racemic) [gadobutrol] | 69.8% | -1.96%
10 | Cc1ccc(N(CC2=NCCN2)c2cccc(O)c2)cc1 [phentolamine] | 117% and 109% | 2.12% and -8.51%
11 | COc1cc2nc(N3CCN(C(=O)C4CCCO4)CC3)nc(N)c2cc1OC (stereo not drawn) [Terazosin] | 83.2% | -1.47%
12 | CCCCCCCCCCCC[N+](C)(C)CCOc1ccccc1 [domiphen] | 59.4% | -2.11%
13 | CC(=O)Oc1cccc2c1C(=O)c1c(OC(C)=O)cc(C(=O)O)cc1C2=O [diacerein] | 84.3% | 1%
14 | CC1(C)S[C@@H]2[C@H](NC(=O)C(C(=O)Oc3ccc4c(c3)CCC4)c3ccccc3)C(=O)N2[C@H]1C(=O)O (stereo partly drawn) [carindacillin] | 82.4% | 0.953%
15 | C[C@H](Cc1cc2c(c(C(N)=O)c1)N(CCCO)CC2)NCCOc1ccccc1OCC(F)(F)F [silodosin] | 103% | -0.336%
16 | O/N=C/c1cc[n+](CCC[n+]2ccc(/C=N/O)cc2)cc1 [trimedoxime bromide] | 76.3% | -9.58%
17 | CC(=O)NCCCCCC(=O)O [acexamic acid] | 100% | 2.05%
18 | C[C@H]1O[C@@H](O[C@H]2[C@@H](O)C[C@H](O[C@H]3[C@@H](O)C[C@H](O[C@H]4CC[C@@]5(C)[C@H](CC[C@@H]6[C@@H]5CC[C@]5(C)[C@@H](C7=CC(=O)OC7)CC[C@]65O)C4)O[C@@H]3C)O[C@@H]2C)C[C@H](O)[C@@H]1O | 14.9% | -11.2%
19 | C[C@@H]1C[C@H]2[C@@H]3C[C@H](F)C4=CC(=O)C=C[C@]4(C)[C@@]3(F)[C@@H](O)C[C@]2(C)[C@@]1(OC(=O)c1ccco1)C(=O)SCF [fluticasone furoate] | 108% | 2.5%
20 | O=C(O)c1ccccc1 | 103% | -2.06%
21 | COc1ccc2c(O[C@@H]3C[C@H]4C(=O)N[C@]5(C(=O)NS(=O)(=O)C6CC6)C[C@H]5/C=C\CCCCN(C)C(=O)[C@@H]4C3)cc(-c3nc(C(C)C)cs3)nc2c1C [Simeprevir] | 76.3% | 1.47%
22 | CC[C@H](C)[C@@H]1NC(=O)[C@H](Cc2ccc(OC)cc2)NC(=O)CCCSC[C@@H](C(=O)N2CCC[C@H]2C(=O)N[C@@H](CC(C)C)C(=O)NCC(N)=O)NC(=O)[C@H](CC(N)=O)NC(=O)[C@H](CCC(N)=O)NC1=O [carbetocin] | 96.2% | -4.89%

Row | Compound | mCherry [1] | percent effect [2]
23 | CC(=O)O[C@]1(C(C)=O)CC[C@H]2[C@@H]3C=C(Cl)C4=CC(=O)CC[C@]4(C)[C@H]3CC[C@@]21C [Chlormadinone Acetate] | 110% | -3.09%
24 | CC(=O)O[C@]1(C(C)=O)CC[C@H]2[C@@H]3C=C(C)C4=CC(=O)CC[C@]4(C)[C@H]3CC[C@@]21C [Megestrol acetate] | 105% | -1.72%
25 | CCC(CC)(CC(=O)Nc1cccc(/C=C/c2nc(C3CCC3)cs2)c1)C(=O)O [cinalukast] | 114% | -5.79%
26 | COCCCOc1cc(C[C@@H](C[C@H](N)[C@@H](O)C[C@H](C(=O)NCC(C)(C)C(N)=O)C(C)C)C(C)C)ccc1OC [aliskiren] | 80.7% | -4.42%
27 | C=C(C#N)C(=O)OCCCC [enbucrilate] | 97% | -5.11%
28 | CC(CC(c1ccccc1)c1ccccc1)NC(C)(C)C (stereo not drawn) [terodiline] | 71.7% | -4.6%
29 | C[C@@H]1C(=O)O[C@H]2C[C@@]34[C@H]5C[C@@H](C(C)(C)C)[C@]36[C@@H](OC(=O)[C@@H]6O)O[C@@]4(C(=O)O5)[C@]21O [Ginkgolide A] | 78.9% | -2.45%
30 | NCC[C@H](O)C(=O)N[C@@H]1C[C@H](N)[C@@H](O[C@H]2O[C@H](CN)CC[C@H]2N)[C@H](O)[C@H]1O[C@H]1O[C@H](CO)[C@@H](O)[C@H](N)[C@H]1O [arbekacin] | 107% | -2.38%
31 | CC(C)[C@H](N)C(=O)OCC(CO)OCn1cnc2c(=O)nc(N)[nH]c21 (stereo partly drawn) | 99.9% | -1.02%
32 | OC[C@H]1O[C@H](O[C@]2(CCl)O[C@H](CCl)[C@@H](O)[C@@H]2O)[C@H](O)[C@@H](O)[C@H]1Cl | 114% | 1.43%
33 | Cc1cc(C(=O)NCCc2ccc(S(=O)(=O)NC(=O)NN3CCCCCC3)cc2)no1 [Glisoxepide] | 93.4% | -3.9%
34 | CC(=O)O[C@H]1C[C@@]2(C)[C@@H](C[C@@H](O)[C@H]3[C@@]4(C)CC[C@@H](O)[C@@H](C)[C@@H]4CC[C@@]32C)/C1=C(\CCC=C(C)C)C(=O)O | 112% | -14.7%
35 | Clc1ccc(COC(Cn2ccnc2)c2ccc(Cl)cc2Cl)cc1 (stereo not drawn) | 112% | -4.71%
36 | OCCN1CCN(CCCN2c3ccccc3Sc3ccc(Cl)cc32)CC1 [perphenazine] | 136% | -4.48%
37 | Nc1nc(=O)[nH]cc1F [flucytosine] | 108% | -2%
38 | C=C(c1ccc(C(=O)O)cc1)c1cc2c(cc1C)C(C)(C)CCC2(C)C [bexarotene] | 93.3% | -3.41%
39 | N[C@@H](CC(=O)N1CCn2c(nnc2C(F)(F)F)C1)Cc1cc(F)c(F)cc1F | 86.8% | -3.68%
40 | COc1ccc(/C=C/C(=O)Nc2ccccc2C(=O)O)cc1OC [Tranilast] | 94.8% | 1.35%
41 | C[C@]12C=CC(=O)C=C1CC[C@@H]1[C@@H]2[C@@H](O)C[C@@]2(C)[C@H]1CC[C@]2(O)C(=O)COC(=O)CCC(=O)O | 97.7% | -2.6%
42 | CC(=O)NS(=O)(=O)c1ccc(N)cc1 [sulfacetamide] | 117% | -1.08%
43 | N#Cc1ccc(C(c2ccc(C#N)cc2)n2cncn2)cc1 [letrozole] | 97.7% and 95.4% | -2.84% and -3.01%
44 | CN1CCCN=C1COC(=O)C(O)(c1ccccc1)C1CCCCC1 (stereo not drawn) | 99.4% | -0.879%

Row | Compound | mCherry [1] | percent effect [2]
45 | CC(C)NCC(O)c1ccc2ccccc2c1 (stereo not drawn) [pronetalol] | 104% and 96.3% | -2.22% and 0.399%
46 | O=C(O)c1cn(-c2ccc(F)cc2)c2cc(N3CCNCC3)c(F)cc2c1=O [sarafloxacin] | 127% and 104% | 3.8% and 0.921%
47 | COc1ccc(-c2cc(=S)ss2)cc1 [Anethole-trithione] | 105% | 2.49%
48 | CN(C)CCC(c1ccc(Br)cc1)c1ccccn1 (stereo not drawn) | 146% | 0.28%
49 | COc1cc2c(cc1OC)CN(C(=O)[C@H](C)N[C@@H](CCc1ccccc1)C(=O)O)[C@H](C(=O)O)C2 [moexiprilat] | 87.3% | 3.2%
50 | C[C@]12Cc3c[nH]nc3C[C@@H]1CC[C@@H]1[C@@H]2CC[C@@]2(C)[C@H]1CC[C@]2(C)O [Stanozolol] | 87.3% and 96% | -2.77% and 1.48%
51 | CCCCOc1ccc(OCCCN2CCOCC2)cc1 [pramocaine] | 84.7% | -2.13%
52 | Nc1ccc(S(=O)(=O)c2cnc(N)s2)cc1 [thiazosulfone] | 146% | -0.212%
53 | CN1CCN(C2=Nc3ccccc3Sc3ccc(Cl)cc32)CC1 [clotiapine] | 87.9% | -0.0575%
54 | CC(C)OC(=O)[C@@H]1CC2=CC(=O)CC[C@]2(C)[C@H]2CC[C@@]3(C)[C@@H](CC[C@@]34CCC(=O)O4)[C@H]12 [dicirenone] | 104% | 0.246%
55 | CC1(C)O[C@@H]2C[C@H]3[C@@H]4C[C@H](F)C5=CC(=O)CC[C@]5(C)[C@H]4[C@@H](O)C[C@]3(C)[C@]2(C(=O)CO)O1 [fludroxycortide] | 146% and 121% | -0.435% and -8.5%
56 | Cc1ccc2c(Cl)cc(Cl)c(O)c2n1 [chlorquinaldol] | 113% | -3.86%
57 | CCCc1nn(C)c2c(=O)[nH]c(-c3cc(S(=O)(=O)N4CCN(C)CC4)ccc3OCC)nc12 | 136% | 11.8%
58 | CCOCCOC(=O)/C=C/c1ccc(OC)cc1 [cinoxate] | 115% | 2.5%
59 | COc1ccc(/C=C/C(=O)Nc2ccccc2C(=O)O)cc1OC | 107% | -0.424%
60 | CCCCC[C@H](O)CC[C@@H]1[C@H]2Cc3cccc(OCC(=O)O)c3C[C@H]2C[C@H]1O [Treprostinil] | 86.2% | -6.52%
61 | CCOC(=O)CN1CCN(C(=O)/C=C/c2cc(OC)c(OC)c(OC)c2)CC1 [cinepazet] | 69.5% | -4.11%
62 | CCCCCCOC(=O)NC(=N)c1ccc(NCc2nc3cc(C(=O)N(CCC(=O)OCC)c4ccccn4)ccc3n2C)cc1 [Dabigatran etexilate] | 52.2% | -5.83%
63 | COC(=O)Nc1nc2cc(C(=O)c3ccccc3)ccc2[nH]1 [mebendazole] | 106% | -5.76%
64 | CO[C@H]1/C=C/O[C@@]2(C)Oc3c(C)c(O)c4c(O)c(c(/C=N/N5CCN(C)CC5)c(O)c4c3C2=O)NC(=O)/C(C)=C\C=C\[C@H](C)[C@H](O)[C@@H](C)[C@@H](O)[C@@H](C)[C@H](OC(C)=O)[C@@H]1C | 90.9% | -4.18%
